Results are given in words; binding and its absence hold for the method and conditions named. A result given as binding can be weak or reduced; the word gives no strength.
Target: Srs2 fused with the DNA binding domain of Gal4 (S. cerevisiae) (UniProt P12954)
Test: two-hybrid; Rad52 or Rad51 fused to the Gal4 activating domain, Srs2 or its fragments fused to the Gal4 DNA binding domain; strain PJ69 and a Δrad51 derivative; HIS3 under a Gal4-dependent promoter, growth on medium lacking leucine, tryptophan and histidine; 3 to 5 days at 30°C

The chains behind the UniProt entries cited, without tags or fusion partners.
UniProt P25454: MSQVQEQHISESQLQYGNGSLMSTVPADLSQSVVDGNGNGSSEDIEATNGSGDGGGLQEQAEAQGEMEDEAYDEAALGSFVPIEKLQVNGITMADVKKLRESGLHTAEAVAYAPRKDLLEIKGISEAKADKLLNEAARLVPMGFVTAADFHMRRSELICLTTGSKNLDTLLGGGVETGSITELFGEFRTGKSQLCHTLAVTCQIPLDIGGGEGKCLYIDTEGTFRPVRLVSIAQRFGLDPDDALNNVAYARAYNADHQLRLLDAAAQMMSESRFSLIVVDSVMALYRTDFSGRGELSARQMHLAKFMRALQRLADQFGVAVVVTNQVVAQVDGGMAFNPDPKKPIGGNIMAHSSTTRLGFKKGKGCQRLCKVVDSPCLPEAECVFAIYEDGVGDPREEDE

Substance: Rad51 fused with the transcription-activating domain of Gal4 (from UniProt P25454 1-400)
- binding: binds

Reference: paper PMC7403780
